Data taken from publication doi:10.1101/2022.12.01.518705.
Like-named read-outs stand apart in the source and are kept apart here. No constants are given. Whether binding was seen depends on the method and setting. Binding seen in cells or lysates may run through a third protein. Some entries that bind do so weakly or less than the wild type.

The chains behind the UniProt entries cited, without tags or fusion partners.
UniProt Q60823: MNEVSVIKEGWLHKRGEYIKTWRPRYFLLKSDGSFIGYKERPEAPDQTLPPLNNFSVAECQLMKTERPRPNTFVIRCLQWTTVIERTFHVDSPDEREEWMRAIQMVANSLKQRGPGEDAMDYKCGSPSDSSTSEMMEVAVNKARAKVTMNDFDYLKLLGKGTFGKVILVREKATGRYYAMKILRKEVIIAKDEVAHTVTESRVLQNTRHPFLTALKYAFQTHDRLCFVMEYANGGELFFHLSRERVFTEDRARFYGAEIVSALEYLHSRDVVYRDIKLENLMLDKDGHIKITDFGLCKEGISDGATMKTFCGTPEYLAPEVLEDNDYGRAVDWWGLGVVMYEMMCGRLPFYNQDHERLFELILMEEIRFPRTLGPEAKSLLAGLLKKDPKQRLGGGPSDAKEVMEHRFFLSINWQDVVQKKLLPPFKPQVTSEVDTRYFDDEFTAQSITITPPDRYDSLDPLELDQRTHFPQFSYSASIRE
UniProt O88196: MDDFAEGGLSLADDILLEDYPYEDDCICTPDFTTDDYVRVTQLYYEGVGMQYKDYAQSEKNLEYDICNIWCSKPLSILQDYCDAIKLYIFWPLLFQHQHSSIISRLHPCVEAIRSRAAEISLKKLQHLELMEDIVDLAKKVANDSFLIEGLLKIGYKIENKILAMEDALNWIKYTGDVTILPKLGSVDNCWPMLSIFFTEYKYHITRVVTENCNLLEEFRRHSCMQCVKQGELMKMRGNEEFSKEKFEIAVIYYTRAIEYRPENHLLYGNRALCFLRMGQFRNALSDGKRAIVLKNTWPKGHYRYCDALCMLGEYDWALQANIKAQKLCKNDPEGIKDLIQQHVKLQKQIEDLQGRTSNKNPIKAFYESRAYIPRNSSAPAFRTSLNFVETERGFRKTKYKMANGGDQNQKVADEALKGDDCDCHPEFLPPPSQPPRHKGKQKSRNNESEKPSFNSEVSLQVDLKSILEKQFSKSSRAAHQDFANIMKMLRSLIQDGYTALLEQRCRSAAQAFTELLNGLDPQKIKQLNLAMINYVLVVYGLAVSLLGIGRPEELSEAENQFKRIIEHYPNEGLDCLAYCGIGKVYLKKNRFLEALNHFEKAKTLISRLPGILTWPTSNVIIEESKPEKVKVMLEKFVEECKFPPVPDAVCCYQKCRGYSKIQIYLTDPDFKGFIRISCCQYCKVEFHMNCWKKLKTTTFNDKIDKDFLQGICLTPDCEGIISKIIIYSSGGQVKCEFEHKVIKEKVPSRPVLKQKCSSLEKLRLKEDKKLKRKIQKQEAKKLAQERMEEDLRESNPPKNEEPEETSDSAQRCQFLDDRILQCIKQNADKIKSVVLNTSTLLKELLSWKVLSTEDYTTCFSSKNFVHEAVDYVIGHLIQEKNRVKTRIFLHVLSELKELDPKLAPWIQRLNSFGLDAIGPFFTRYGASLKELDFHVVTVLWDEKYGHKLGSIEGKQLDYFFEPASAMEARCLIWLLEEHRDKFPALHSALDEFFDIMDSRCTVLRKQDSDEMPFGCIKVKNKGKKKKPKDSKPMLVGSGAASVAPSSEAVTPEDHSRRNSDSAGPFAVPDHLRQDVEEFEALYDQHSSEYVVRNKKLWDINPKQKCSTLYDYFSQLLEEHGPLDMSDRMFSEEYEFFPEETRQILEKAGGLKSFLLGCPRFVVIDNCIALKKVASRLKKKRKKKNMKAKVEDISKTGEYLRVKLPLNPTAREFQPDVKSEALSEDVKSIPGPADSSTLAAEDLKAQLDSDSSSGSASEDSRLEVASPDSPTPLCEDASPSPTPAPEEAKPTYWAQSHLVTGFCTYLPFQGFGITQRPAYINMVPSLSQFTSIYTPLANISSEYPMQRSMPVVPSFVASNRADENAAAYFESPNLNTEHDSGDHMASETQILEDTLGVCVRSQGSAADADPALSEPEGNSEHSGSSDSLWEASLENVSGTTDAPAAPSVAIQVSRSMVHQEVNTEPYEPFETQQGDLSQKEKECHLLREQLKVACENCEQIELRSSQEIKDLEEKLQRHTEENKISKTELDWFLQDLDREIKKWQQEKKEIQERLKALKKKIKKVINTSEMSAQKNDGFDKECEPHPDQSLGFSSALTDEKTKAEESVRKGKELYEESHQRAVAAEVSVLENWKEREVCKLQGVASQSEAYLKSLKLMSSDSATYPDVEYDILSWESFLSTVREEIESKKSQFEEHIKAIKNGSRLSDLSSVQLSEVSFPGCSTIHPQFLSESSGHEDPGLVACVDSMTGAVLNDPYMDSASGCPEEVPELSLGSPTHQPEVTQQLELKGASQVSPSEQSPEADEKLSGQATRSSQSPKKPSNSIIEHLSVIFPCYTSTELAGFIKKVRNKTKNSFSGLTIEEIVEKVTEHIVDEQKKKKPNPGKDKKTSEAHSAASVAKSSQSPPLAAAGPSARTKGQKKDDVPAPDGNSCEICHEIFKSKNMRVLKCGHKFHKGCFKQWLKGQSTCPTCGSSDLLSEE

Experiments:
Assay in all cases: proximity ligation
[1] = target: T1, Auts2 (endogenous, mouse primary neurons) (mouse (endogenous in primary neurons))
T1 sequence: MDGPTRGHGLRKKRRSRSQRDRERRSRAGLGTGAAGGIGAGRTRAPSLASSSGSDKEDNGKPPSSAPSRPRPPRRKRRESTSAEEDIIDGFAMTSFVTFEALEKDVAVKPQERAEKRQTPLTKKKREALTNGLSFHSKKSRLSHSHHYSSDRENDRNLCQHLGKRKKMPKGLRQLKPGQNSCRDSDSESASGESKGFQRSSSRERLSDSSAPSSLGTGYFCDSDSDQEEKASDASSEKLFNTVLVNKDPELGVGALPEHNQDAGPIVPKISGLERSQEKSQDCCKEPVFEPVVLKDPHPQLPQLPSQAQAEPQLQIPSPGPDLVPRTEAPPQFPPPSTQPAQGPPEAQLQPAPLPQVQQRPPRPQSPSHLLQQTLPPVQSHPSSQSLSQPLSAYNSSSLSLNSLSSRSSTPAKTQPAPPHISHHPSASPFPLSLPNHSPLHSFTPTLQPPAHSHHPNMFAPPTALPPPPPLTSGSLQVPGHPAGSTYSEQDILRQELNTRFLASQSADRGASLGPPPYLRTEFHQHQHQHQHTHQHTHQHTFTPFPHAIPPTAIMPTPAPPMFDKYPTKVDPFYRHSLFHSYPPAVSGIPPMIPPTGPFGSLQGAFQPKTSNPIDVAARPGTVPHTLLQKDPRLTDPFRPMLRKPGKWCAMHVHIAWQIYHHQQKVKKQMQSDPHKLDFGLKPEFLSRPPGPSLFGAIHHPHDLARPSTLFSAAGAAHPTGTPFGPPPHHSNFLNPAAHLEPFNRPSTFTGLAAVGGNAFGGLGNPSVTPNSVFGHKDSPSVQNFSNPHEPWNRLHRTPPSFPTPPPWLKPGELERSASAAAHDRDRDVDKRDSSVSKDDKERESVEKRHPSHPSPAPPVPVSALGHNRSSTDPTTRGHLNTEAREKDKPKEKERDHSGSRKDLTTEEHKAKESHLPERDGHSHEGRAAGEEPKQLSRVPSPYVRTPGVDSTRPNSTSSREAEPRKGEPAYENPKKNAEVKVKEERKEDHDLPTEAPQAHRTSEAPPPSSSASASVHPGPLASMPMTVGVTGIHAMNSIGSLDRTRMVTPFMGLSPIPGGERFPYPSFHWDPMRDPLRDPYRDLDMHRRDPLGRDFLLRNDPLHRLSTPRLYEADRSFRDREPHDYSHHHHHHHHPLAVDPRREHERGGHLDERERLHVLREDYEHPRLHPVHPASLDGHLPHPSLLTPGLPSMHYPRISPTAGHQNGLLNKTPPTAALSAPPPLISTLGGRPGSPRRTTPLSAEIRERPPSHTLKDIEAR

[2] = target: Akt2 (endogenous, mouse primary neurons) (mouse (endogenous in primary neurons)) (UniProt Q60823)
[3] = target: T1, Auts2 (endogenous, mouse primary neurons) (mouse (endogenous in primary neurons)); remark: listed apart in the source

Measured: binding

Ttc3 (endogenous, mouse primary neurons) (from UniProt O88196 1-1979)
binds: all assays above
